# Assay results reported in the supplement of paper PMC10849652.
# Protein sequences, listed by entry. Tags and fused reporters are not part of them. Lines headed by an entry give the natural chain unless they say otherwise; changes in a name come on top.
# UniProt Q9Y6K9, whole entry, looked up: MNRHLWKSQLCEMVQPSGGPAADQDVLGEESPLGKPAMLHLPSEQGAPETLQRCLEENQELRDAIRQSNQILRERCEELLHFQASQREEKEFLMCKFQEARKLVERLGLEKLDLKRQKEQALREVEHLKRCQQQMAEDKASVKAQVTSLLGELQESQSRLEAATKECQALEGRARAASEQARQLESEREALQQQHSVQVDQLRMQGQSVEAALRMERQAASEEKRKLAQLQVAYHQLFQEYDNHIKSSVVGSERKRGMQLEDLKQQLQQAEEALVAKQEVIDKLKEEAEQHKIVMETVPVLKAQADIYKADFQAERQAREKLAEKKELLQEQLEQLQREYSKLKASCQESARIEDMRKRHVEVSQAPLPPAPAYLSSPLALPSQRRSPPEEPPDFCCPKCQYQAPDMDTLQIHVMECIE
# UniProt P04792, whole entry, looked up: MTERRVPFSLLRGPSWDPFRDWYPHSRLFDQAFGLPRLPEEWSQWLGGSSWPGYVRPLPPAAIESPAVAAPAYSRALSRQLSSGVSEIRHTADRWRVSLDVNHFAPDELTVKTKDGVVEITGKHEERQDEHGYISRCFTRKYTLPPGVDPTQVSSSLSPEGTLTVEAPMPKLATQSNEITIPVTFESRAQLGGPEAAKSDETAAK
# UniProt Q9NX62: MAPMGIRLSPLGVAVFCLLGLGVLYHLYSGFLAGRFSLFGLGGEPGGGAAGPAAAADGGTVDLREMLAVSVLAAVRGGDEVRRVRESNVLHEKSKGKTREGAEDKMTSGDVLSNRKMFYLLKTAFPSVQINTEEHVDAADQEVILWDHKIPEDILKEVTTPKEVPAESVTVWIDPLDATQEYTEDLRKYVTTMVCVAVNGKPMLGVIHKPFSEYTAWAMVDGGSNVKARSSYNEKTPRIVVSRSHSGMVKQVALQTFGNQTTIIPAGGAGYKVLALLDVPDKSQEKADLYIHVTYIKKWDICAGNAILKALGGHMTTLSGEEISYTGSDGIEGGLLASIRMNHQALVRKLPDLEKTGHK
# UniProt Q9Y2H2: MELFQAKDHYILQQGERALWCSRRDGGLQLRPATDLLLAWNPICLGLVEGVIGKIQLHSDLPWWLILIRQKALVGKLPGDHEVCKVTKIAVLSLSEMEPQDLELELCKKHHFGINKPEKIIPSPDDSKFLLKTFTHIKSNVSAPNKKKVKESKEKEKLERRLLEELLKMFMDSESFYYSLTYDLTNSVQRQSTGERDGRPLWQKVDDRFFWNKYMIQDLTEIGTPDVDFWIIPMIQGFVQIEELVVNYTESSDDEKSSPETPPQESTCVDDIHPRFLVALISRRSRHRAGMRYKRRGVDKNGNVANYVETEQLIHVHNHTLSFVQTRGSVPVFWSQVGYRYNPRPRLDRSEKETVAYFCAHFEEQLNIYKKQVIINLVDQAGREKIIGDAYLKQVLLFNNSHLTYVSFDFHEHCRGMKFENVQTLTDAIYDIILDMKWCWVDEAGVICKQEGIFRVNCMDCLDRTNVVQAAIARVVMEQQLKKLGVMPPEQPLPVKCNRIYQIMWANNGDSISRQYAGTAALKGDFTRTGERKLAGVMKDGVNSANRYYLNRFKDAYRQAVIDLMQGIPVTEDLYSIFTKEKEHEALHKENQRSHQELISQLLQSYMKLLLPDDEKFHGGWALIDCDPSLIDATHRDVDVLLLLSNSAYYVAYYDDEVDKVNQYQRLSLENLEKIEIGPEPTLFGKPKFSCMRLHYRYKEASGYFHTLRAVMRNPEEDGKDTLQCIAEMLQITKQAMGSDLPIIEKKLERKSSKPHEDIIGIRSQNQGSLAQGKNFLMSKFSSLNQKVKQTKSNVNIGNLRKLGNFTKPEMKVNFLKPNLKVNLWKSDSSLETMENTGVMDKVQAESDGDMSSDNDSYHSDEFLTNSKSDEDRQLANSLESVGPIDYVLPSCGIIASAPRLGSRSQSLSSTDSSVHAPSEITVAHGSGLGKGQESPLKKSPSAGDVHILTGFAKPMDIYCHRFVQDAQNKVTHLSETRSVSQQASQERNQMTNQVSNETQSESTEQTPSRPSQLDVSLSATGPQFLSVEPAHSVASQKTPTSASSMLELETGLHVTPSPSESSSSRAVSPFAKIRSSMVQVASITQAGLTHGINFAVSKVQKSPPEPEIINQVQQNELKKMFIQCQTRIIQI
# UniProt Q9Y5U9: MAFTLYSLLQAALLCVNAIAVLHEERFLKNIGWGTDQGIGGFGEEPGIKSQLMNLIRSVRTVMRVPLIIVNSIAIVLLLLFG
# UniProt P41252: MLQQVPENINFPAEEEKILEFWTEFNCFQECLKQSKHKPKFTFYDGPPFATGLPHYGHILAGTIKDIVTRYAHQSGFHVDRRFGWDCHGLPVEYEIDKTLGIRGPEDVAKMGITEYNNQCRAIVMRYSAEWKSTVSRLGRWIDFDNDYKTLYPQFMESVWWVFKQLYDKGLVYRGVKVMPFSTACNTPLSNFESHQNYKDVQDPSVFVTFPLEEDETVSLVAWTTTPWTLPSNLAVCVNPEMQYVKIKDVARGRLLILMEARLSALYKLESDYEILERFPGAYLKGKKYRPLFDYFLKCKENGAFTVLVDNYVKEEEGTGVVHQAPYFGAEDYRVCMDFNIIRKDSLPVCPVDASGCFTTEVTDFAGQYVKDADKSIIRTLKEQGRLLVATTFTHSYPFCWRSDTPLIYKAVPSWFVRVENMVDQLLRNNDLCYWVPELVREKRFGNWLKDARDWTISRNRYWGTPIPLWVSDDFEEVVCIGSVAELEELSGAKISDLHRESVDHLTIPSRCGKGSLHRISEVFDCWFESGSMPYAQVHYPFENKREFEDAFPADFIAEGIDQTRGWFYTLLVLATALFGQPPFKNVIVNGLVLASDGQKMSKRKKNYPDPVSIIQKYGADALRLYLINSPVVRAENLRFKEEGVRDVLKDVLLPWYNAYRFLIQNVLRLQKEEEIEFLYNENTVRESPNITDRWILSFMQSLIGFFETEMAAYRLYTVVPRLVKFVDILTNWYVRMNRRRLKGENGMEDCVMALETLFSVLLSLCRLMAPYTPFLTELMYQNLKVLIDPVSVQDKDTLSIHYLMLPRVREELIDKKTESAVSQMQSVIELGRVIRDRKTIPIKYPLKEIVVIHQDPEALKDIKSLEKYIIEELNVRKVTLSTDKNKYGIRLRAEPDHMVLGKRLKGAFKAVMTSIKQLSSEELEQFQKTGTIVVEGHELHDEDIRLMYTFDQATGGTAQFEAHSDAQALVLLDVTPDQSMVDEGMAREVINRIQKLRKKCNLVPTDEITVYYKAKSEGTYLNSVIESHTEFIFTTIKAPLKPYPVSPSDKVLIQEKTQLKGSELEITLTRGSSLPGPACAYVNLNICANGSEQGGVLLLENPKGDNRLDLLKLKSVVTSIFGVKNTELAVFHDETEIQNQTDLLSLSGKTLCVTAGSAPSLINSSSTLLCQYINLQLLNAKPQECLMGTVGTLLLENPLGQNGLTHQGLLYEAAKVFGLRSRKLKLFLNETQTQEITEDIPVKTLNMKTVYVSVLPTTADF
# UniProt P61604, whole entry, looked up: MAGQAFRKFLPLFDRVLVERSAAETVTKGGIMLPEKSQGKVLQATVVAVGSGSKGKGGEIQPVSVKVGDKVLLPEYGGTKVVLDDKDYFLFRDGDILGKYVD
# UniProt O00425, whole entry, looked up: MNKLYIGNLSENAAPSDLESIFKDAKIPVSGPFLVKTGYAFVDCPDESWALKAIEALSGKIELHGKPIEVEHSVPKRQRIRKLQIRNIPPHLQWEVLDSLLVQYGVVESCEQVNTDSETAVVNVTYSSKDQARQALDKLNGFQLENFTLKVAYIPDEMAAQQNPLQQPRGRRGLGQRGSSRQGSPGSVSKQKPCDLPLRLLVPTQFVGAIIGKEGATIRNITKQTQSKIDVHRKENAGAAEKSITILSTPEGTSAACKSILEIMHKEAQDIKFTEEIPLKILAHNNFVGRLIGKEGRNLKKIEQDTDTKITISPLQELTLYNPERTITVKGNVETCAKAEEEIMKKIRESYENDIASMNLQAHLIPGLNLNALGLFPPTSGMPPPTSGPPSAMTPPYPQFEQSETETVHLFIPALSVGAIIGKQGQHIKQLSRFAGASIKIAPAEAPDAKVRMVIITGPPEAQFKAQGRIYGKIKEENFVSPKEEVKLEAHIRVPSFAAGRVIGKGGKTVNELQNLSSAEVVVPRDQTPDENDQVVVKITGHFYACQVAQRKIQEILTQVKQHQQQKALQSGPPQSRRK
# UniProt Q12906, whole entry, looked up: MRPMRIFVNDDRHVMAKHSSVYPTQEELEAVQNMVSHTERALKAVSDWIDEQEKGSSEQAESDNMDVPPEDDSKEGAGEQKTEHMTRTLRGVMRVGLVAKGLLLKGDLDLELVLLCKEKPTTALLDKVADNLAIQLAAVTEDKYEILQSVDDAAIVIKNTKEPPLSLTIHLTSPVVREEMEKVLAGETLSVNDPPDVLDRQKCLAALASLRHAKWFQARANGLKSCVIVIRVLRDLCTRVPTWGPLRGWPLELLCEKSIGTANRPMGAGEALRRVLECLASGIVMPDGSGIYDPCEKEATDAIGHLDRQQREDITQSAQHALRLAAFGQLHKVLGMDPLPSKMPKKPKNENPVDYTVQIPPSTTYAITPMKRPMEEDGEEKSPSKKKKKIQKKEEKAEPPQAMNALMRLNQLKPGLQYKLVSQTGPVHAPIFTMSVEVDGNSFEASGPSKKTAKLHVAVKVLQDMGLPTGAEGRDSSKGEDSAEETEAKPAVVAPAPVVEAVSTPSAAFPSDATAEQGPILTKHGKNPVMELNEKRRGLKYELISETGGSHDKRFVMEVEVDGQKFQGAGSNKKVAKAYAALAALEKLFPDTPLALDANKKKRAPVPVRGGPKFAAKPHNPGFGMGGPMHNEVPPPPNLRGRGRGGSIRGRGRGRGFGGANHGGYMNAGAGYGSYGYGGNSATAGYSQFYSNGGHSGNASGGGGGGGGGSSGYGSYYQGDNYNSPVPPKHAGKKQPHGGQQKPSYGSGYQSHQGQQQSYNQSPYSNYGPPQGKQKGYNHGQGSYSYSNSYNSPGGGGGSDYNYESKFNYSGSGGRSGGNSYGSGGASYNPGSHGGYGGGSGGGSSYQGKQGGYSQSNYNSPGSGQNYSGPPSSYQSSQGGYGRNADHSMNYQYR
# UniProt P01876, whole entry, looked up: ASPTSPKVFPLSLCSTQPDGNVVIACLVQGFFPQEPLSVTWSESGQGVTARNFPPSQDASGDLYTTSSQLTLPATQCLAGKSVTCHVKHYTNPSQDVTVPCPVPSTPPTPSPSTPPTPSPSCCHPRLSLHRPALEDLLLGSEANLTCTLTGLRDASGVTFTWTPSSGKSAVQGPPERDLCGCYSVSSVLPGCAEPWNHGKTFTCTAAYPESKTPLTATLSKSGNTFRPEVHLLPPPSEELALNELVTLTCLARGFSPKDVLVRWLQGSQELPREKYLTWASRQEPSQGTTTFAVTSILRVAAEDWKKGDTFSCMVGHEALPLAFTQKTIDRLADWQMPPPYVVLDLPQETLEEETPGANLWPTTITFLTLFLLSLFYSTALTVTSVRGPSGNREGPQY
# UniProt Q8IY31, whole entry, looked up: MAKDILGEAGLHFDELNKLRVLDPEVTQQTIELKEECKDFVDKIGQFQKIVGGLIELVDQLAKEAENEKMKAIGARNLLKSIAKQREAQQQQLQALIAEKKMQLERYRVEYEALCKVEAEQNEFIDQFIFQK
# UniProt Q9NSE4: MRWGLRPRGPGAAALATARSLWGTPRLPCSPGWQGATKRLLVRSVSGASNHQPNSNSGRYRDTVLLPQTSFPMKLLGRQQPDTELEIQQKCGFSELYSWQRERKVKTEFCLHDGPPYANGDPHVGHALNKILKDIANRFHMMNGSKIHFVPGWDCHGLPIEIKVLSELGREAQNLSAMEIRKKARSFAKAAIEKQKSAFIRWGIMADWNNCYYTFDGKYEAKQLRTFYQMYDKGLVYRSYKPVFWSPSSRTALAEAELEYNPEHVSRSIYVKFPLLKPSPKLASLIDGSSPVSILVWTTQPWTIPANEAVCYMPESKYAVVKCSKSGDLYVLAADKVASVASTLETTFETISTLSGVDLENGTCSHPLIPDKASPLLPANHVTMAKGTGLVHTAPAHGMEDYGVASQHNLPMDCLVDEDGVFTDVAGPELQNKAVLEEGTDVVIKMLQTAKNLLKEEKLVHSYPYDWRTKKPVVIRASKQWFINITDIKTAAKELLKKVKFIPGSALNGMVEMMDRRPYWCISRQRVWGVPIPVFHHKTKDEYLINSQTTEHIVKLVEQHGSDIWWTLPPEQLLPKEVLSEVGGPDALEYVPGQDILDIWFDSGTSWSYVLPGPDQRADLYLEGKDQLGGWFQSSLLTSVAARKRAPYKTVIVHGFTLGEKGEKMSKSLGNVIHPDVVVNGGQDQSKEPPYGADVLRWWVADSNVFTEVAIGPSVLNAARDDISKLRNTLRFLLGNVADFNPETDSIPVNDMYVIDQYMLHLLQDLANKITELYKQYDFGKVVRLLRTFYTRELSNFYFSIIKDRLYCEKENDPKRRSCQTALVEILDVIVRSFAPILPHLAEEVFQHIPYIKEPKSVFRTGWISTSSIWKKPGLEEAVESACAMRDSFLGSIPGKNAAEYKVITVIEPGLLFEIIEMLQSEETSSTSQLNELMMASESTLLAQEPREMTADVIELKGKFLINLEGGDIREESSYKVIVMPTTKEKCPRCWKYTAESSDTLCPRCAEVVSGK
# Some of the results follow.
# Compound: C1=CC=C(C=C1)[C@H](COC2=CC3=C(C=C2)NC(=O)N3)NC(=O)C4=CC=CN(C4=O)CC5=CC(=C(C=C5)F)F
# Experiment: log2 fold change, soluble protein after heating vs DMSO (PISA); higher = thermal stabilisation; K562 lysate, 10 uM; active = over 0.2 and 3.5 SD of the protein, either way, in both replicates (recomputed)
# Procedure, shortened: (§1)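 Pellets of K562 cells were dounce-homogenised in PBS pH 7.4 with 1 mM MgCl2, and the crude extract was held at 1 mg/mL protein for a 30 min treatment with 10 μM compound. Aliquots were heated for 3 min over 48°C-58°C and pooled before NP-40 was added to 0.5% at 4°C. The supernatant from 21,000xg for 90 min was quantified by TMTpro 16plex LC-MS/MS with channel sums equalised. Values are reported from duplicates as log-two fold change in thermal stability relative to solvent controls.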
row,Target,log2 fold change
1,IKZF4 (UniProt Q9H2S9),inactive: 0.162
2,IKBKG isoform 2 (UniProt Q9Y6K9),inactive: 0.026
3,IGF2BP2 (UniProt Q9Y6M1),inactive: -0.041
4,HSPA6 (UniProt P17066),inactive: 0.012
5,HSPB1 (UniProt P04792),inactive: -0.091
6,IMPAD1 (UniProt Q9NX62),inactive: 0.056
7,INPP5F (UniProt Q9Y2H2),inactive: -0.066
8,IKBIP (UniProt Q70UQ0),inactive: 0
9,ING4 (UniProt Q9UNL4),inactive: -0.25
10,IER3IP1 (UniProt Q9Y5U9),inactive: -0.038
11,ICAM5 (UniProt Q9UMF0),inactive: 0.082
12,ICOSLG isoform 2 (UniProt O75144),inactive: -0.146
13,IARS (UniProt P41252),inactive: -0.027
14,IK (UniProt Q13123),inactive: 0.019
15,IDS (UniProt P22304),inactive: -0.123
16,HSPE1 (UniProt P61604),inactive: -0.019

row,Target,log2 fold change
1,IMPDH2 (UniProt P12268),inactive: 0
2,IGF2BP3 (UniProt O00425),inactive: -0.02
3,ILF3 isoform 7 (UniProt Q12906),inactive: -0.003
4,IGHA1 (UniProt P01876),inactive: -0.315
5,IFT20 isoform 2 (UniProt Q8IY31),inactive: 0.004
6,INPP5B (UniProt P32019),inactive: 0.005
7,ILF2 (UniProt Q12905),inactive: 0.023
8,HYKK (UniProt A2RU49),inactive: 0.092
9,IGSF8 (UniProt Q969P0),inactive: -0.093
10,IFT43 (UniProt Q96FT9),inactive: -0.147
11,HTR1F (UniProt P30939),inactive: -0.007
12,INTS10 (UniProt Q9NVR2),inactive: -0.015
13,ICMT (UniProt O60725),inactive: 0.008
14,ILK (UniProt Q13418),inactive: -0.009
15,HSPD1 (UniProt P10809),inactive: -0.007
16,IARS2 (UniProt Q9NSE4),inactive: 0.004

# Compound: CC1=C(SC2=C1C(=N[C@H](C3=NN=C(N32)C)CC(=O)N)C4=CC=C(C=C4)Cl)C
# Experiment: as above
# Procedure, shortened: as §1
row,Target,log2 fold change
1,IKZF4 (UniProt Q9H2S9),inactive: 0.327
2,IKBKG isoform 2 (UniProt Q9Y6K9),inactive: -0.031
3,IGF2BP2 (UniProt Q9Y6M1),inactive: -0.004
4,HSPA6 (UniProt P17066),inactive: 0.035
5,HSPB1 (UniProt P04792),inactive: 0.002
6,IMPAD1 (UniProt Q9NX62),inactive: 0.034
7,INPP5F (UniProt Q9Y2H2),inactive: 0.115
8,IKBIP (UniProt Q70UQ0),inactive: -0.005
9,ING4 (UniProt Q9UNL4),inactive: -0.307
10,IER3IP1 (UniProt Q9Y5U9),inactive: -0.126
11,ICAM5 (UniProt Q9UMF0),inactive: 0.045
12,ICOSLG isoform 2 (UniProt O75144),inactive: -0.018
13,IARS (UniProt P41252),inactive: 0.026
14,IK (UniProt Q13123),inactive: -0.07
15,IDS (UniProt P22304),inactive: 0.139
16,HSPE1 (UniProt P61604),inactive: -0.052

row,Target,log2 fold change
1,IMPDH2 (UniProt P12268),inactive: -0.014
2,IGF2BP3 (UniProt O00425),inactive: 0.005
3,ILF3 isoform 7 (UniProt Q12906),inactive: 0.013
4,IGHA1 (UniProt P01876),inactive: 0.337
5,IFT20 isoform 2 (UniProt Q8IY31),inactive: -0.024
6,INPP5B (UniProt P32019),inactive: -0.008
7,ILF2 (UniProt Q12905),inactive: 0.029
8,HYKK (UniProt A2RU49),inactive: -0.04
9,IGSF8 (UniProt Q969P0),inactive: 0.02
10,IFT43 (UniProt Q96FT9),inactive: 0.065
11,HTR1F (UniProt P30939),inactive: -0.045
12,INTS10 (UniProt Q9NVR2),inactive: -0.057
13,ICMT (UniProt O60725),inactive: 0.034
14,ILK (UniProt Q13418),inactive: -0.019
15,HSPD1 (UniProt P10809),inactive: 0.019
16,IARS2 (UniProt Q9NSE4),inactive: 0.013

# Compound: CC1=C2C(=CC=C1)N=C(N(C2=O)C3=CC=CC=C3C)CN4C=NC5=C(N=CN=C54)N
# Experiment: as above
# Procedure, shortened: as §1
row,Target,log2 fold change
1,IKBKG isoform 2 (UniProt Q9Y6K9),inactive: 0.013
2,IGF2BP2 (UniProt Q9Y6M1),inactive: 0.012
3,HSPA6 (UniProt P17066),inactive: -0.066
4,HSPB1 (UniProt P04792),inactive: 0.002
5,IMPAD1 (UniProt Q9NX62),inactive: 0.044
6,INPP5F (UniProt Q9Y2H2),inactive: 0.131
7,IKBIP (UniProt Q70UQ0),inactive: 0.05
8,IER3IP1 (UniProt Q9Y5U9),inactive: -0.009
9,ICAM5 (UniProt Q9UMF0),inactive: -0.079
10,IARS (UniProt P41252),inactive: 0.025
11,IK (UniProt Q13123),inactive: -0.019
12,HSPE1 (UniProt P61604),inactive: -0.01
13,IMPDH2 (UniProt P12268),inactive: -0.007
14,IGF2BP3 (UniProt O00425),inactive: 0.009
15,ILF3 isoform 7 (UniProt Q12906),inactive: 0.007
16,IGHA1 (UniProt P01876),inactive: 0.349
17,IFT20 isoform 2 (UniProt Q8IY31),inactive: -0.088
18,INPP5B (UniProt P32019),inactive: 0.038
19,ILF2 (UniProt Q12905),inactive: -0.008
20,IGSF8 (UniProt Q969P0),inactive: 0.021
21,IFT43 (UniProt Q96FT9),inactive: 0.248
22,HTR1F (UniProt P30939),inactive: -0.071
23,INTS10 (UniProt Q9NVR2),inactive: 0.023
24,ICMT (UniProt O60725),inactive: 0.036
25,ILK (UniProt Q13418),inactive: 0.004
26,HSPD1 (UniProt P10809),inactive: -0.005
27,IARS2 (UniProt Q9NSE4),inactive: -0.006
